Test results: patent US20260217698A1 (BEYANG THERAPEUTICS CO., LTD., priority 2022, published 2026)
Some entries share one result that the patent states for a list of compounds.

Tests used:
[1] = test system: male black-banded Dutch rabbits; settings: fourth day of eye drop administration
[2] = rabbit, three consecutive days of eye drops

CN1CCN(CCCNC(=O)Nc2snc(OCc3ccc(F)c(C(=O)NC4CC4)c3)c2C(N)=O)CC1 [Compound T078, 3-[[3-(cyclopropylcarbamoyl)-4-fluoro-phenyl]methoxy]-5-[3-(4-methylpiperazin-1-yl)propylcarbamoylamino]isothiazole-4-carboxamide]
maximum tolerated dose (MTD) [1]: ≥ 1000 μg/eye | MTD on the fourth day of eye drop administration [2]: ≥ 1000 μg/eye

NC(=O)c1c(OCc2cc(C(=O)NC3CC3)ccc2F)nsc1NC(=O)NCCCN1CC[C@H](F)C1 [Compound T116, 3-[[5-(cyclopropylcarbamoyl)-2-fluoro-phenyl]methoxy]-5-[3-[(3S)-3-fluoropyrrolidin-1-yl]propylcarbamoylamino]isothiazole-4-carboxamide]
maximum tolerated dose (MTD) [1]: ≥ 1000 μg/eye | MTD on the fourth day of eye drop administration [2]: ≥ 1000 μg/eye
